This is one part of the list.
System: T1, CTL2-GFP (C. trachomatis L2/434/Bu, GFP-expressing)
T1 construct: L2/434/Bu, GFP-expressing
Set-up: species or system HeLa; Intracellular C. trachomatis growth in HeLa cells, bulk GFP fluorescence relative to DMSO
Conditions: bulk GFP, single well; 28.5 h, 10 µM; inhibitor

| Compound | % of control remaining |
| --- | --- |
| CSc1nc(N)c2nccnc2n1 [CBK025779] | 100.166% |
| COc1ccc(C)cc1NC(=S)NCc1cnn(C)c1 [CBK267025] | 129.6% |
| CC1CN(CCNCc2cn(C)nc2-c2cccnc2)CC(C)O1 (stereo not drawn) [CBK305151] | 123.707% |
| CCCc1[nH]nc(O)c1CCc1cccc(OC)c1OC [CBK075078] | 134.603% |
| NC(=O)N/N=C/c1cc(Br)cs1 [CBK026434] | 99.0543% |
| O=C(CCCc1nc(-c2ccccc2Cl)no1)Nc1cccnc1 [CBK269122] | 172.093% |
| FC(F)(F)c1ccnc(SCCc2ccncc2)n1 [CBK105302] | 167.6% |
| CCNC(=S)N1CC[C@@H]2N(C)CC[C@]2(c2ccc(OC)c(OC)c2)CC1 [CBK059113T] | 130.746% |
| O=C(COC(=O)c1cc(-c2ccc(Cl)cc2)nc2ccccc12)c1cccc([N+](=O)[O-])c1 [CBK293923] | 168.819% |
| O=C(COc1ccc(F)cc1)N1CCC2(CCNC2)C1 (stereo not drawn) [CBK156691C] | 146.966% |
| Cc1ccc(S(=O)(=O)Nc2ccc(N3CCCNCC3)cc2N(C)S(C)(=O)=O)cc1 [CBK000017C] | 103.46% |
| O=C(COC(=O)c1ccc(Cl)c(Cl)c1)c1ccc(Oc2ccc([N+](=O)[O-])cc2)cc1 [CBK264821] | 103.323% |
| Cc1nc2n(CCN3CCCCC3)c3ccccc3n2n1 [CBK278258C] | 95.5404% |
| C/C(=N\NC(=O)CCc1c(C)n[nH]c1C)c1ccc(N)cc1 [CBK262935] | 125.706% |
| COc1cnc(-c2ccc(Cl)cc2Cl)c(NC(=O)Cc2ccccc2)n1 [CBK145398] | 115.213% |
| O=C(c1ccncc1)N1CCCC(c2cc3ccccc3cn2)C1 (stereo not drawn) [CBK285166] | 121.058% |
| CCc1cc(C(=O)N2CCC(Oc3ccc(F)cc3)CC2)n(C)n1 [CBK282034] | 96.0619% |
| CN(C)c1ccc(-c2cc(NCCc3ccncc3)ncn2)cc1 [CBK090849] | 140.025% |
| CC1CCc2nn(CCNC(=O)C3CCCC3)c(=O)cc2C1 (stereo not drawn) [CBK284484] | 147.737% |
| Oc1cc2cccnc2nc1-c1ccccc1 [CBK073697] | 88.921% |
| O=C1Nc2ccccc2C1Cc1cccc(OC(F)F)c1 (stereo not drawn) [CBK287892] | 106.233% |

| Compound | % of control remaining |
| --- | --- |
| O=C(NC(=S)Nc1ccc2oc(-c3cccc4ccccc34)nc2c1)c1ccco1 [CBK263691] | 100% |
| CCn1ncc(CN2CCC(c3onc4c3CCCC4)CC2)c1C [CBK284576] | 124.586% |
| Cc1cc(NC(=O)c2cccs2)nc2c1c(=O)oc1ccccc12 [CBK287439] | 158.289% |
| Cc1nc(CN2CCCC3(CCN(C(=O)c4ccoc4)C3)C2)cs1 (stereo not drawn) [CBK132838] | 89.3282% |
| CCN1CCN(C(=O)c2csnn2)CC1 [CBK200376] | 102.835% |
| COc1ccc(Br)cc1C1CCCN1C(=O)Cc1cnccc1C (stereo not drawn) [CBK304130] | 117.801% |
| CCCCn1c(S)nc2c(-c3ccccc3)c[nH]c2c1=O [CBK288505] | 64.2565% |
| CC(C)(C)CC(=O)N1C[C@@H]2C[C@H](C1)c1ccc(NC(=O)Nc3ccccc3)c(=O)n1C2 [CBK289176] | 150.032% |
| c1ccc(CN2CCN(c3nccnc3OCCN3CCOCC3)CC2)cc1 [CBK082885T] | 115.709% |
| COc1ccc(Br)cc1/C=N/NC(=O)C1CC(c2ccccc2)(c2ccccc2)C1 [CBK263218] | 109.866% |
| CS(=O)(=O)c1ccc(Nc2ccc3c(c2)COC2(CCN(C(=O)Cc4ccc(F)cc4F)C2)O3)cc1 (stereo not drawn) [CBK131948] | 118.545% |
| CN(C)CC(C)(C)CNC(=O)C1=CC(=O)CC(C)(C)O1 [CBK153291] | 93.5548% |
| COc1ccc(Br)cc1CNCc1ccc(C(=O)O)cc1 [CBK269449C] | 142.008% |
| CS(=O)(=O)N1CCN(c2ccccc2NC(=O)c2cccnc2)CC1 [CBK267604] | 88.6087% |
| COc1ccc(CN2CCCN(S(=O)(=O)c3ccc(-c4ccccc4)cc3)CC2)cc1F [CBK063108] | 117.529% |
| O=C(O)c1ccccc1C(=O)Nc1ccc(Oc2cccc3ccccc23)cc1 [CBK265131] | 100% |
| O=C1NC(=O)C(CCCCN2CCCC3(CCN(C(=O)c4ccoc4)C3)C2)N1 (stereo not drawn) [CBK132833] | 121.768% |
| CSc1ccccc1CNC(=O)c1ccc(C)nc1N1CCOCC1 [CBK106224] | 96.4714% |
| COc1ccc(Sc2ncccc2C(F)(F)F)cc1OC [CBK093760] | 100% |
| O=C(Nc1ccccn1)c1cc2ccccc2oc1=O [CBK287354] | 115.988% |
| CN(c1ncc(-c2cc3ccccc3o2)cc1C(=O)Nc1ccc2c(c1)OCO2)S(C)(=O)=O [CBK106464] | 125.388% |

2 consecutive entries already listed, quoted:

| Compound | % of control remaining |
| --- | --- |
| COc1ccc(Br)cc1CNCc1ccc(C(=O)O)cc1 [CBK269449C] | 142.008% |
| CS(=O)(=O)N1CCN(c2ccccc2NC(=O)c2cccnc2)CC1 [CBK267604] | 88.6087% |

Continued:

| Compound | % of control remaining |
| --- | --- |
| CN(Cc1ccccc1)S(=O)(=O)c1ccc(OCC(=O)O)cc1 [CBK276426] | 127.279% |
| CN(C)c1cccc(Nc2ccc(-c3cccc(C(=O)O)c3)cn2)c1 [CBK036879] | 196.777% |
| Cc1ccc(Oc2ccc(S(=O)(=O)N3CCOCC3)cc2C(=O)O)cc1 [CBK286748] | 106.211% |
| Cc1cccc(-c2noc(CN(C(=O)c3ccc4c(c3)OCO4)C(C)C)n2)c1 [CBK268817] | 105.602% |
| Cc1oc(NC(=O)CN(C)Cc2cccc(F)c2)c(C#N)c1C [CBK305609] | 133.418% |
| Cc1nn(-c2ccc(F)cc2)c(C)c1CNC(=O)CCC1CCCO1 (stereo not drawn) [CBK281456] | 135.124% |
| CCC(CC)C(=O)N1CCC2(CC1)Nc1cccnc1-n1cccc12 [CBK284508] | 117.925% |
| Cc1cc(NC(=O)c2cscn2)c2ccccc2n1 [CBK116275] | 132.783% |
| O=c1[nH]c2ncc(-c3ccoc3)nc2n1Cc1cccs1 [CBK064647] | 230.188% |
| N#Cc1cccc(C(=O)N2CCC(NC(=O)c3ccc(F)cc3)CC2)c1 [CBK305717] | 104.093% |
| CCCN[C@@H]1CCc2cc(CNC(=O)c3ccc(C#N)cc3)ccc2C1 [CBK010211C] | 127.511% |
| Cc1cc2c(=O)n(CC(=O)NCc3ccco3)cnc2s1 [CBK071898] | 100% |
| Cc1ccccc1N1C(=O)/C(=C/c2cn(Cc3ccccc3[N+](=O)[O-])c3ccccc23)SC1=S [CBK265101] | 134.643% |
| FC(F)(F)c1ccnc(OCCN2CCNCC2)c1 [CBK113459] | 118.264% |
| O=C(CSc1nsc(SCC(=O)c2ccccc2)n1)c1ccccc1 [CBK264142] | 71.9872% |
| NNc1nc(-c2ccccc2)cc(-c2ccc(Br)cc2)n1 [CBK261795] | 122.265% |
| CS(=O)(=O)Nc1ccc2cc(-c3ccc(Oc4ccccc4)cc3)cnc2n1 [CBK085674] | 100% |
| COc1cc(NC(=O)N[C@@H]2CN(C)C[C@H]2c2ccc(OC)c(OC)c2)cc(OC)c1 [CBK081112] | 100.764% |
| Cc1cccc(C2(O)CCN(CC(O)c3ccccc3)CC2)c1 (stereo not drawn) [CBK286325] | 116.102% |
| O=C(c1cc(F)cc(F)c1)N1CCC(c2cccnc2)CC1 [CBK283892] | 129.965% |
| CCn1cc(CN(C)Cc2ccon2)c2cc(C(=O)O)ncc21 [CBK307017] | 112.407% |

Compounds above with a cyano group:

| Compound | % of control remaining |
| --- | --- |
| Cc1oc(NC(=O)CN(C)Cc2cccc(F)c2)c(C#N)c1C [CBK305609] | 133.418% |
| N#Cc1cccc(C(=O)N2CCC(NC(=O)c3ccc(F)cc3)CC2)c1 [CBK305717] | 104.093% |
| CCCN[C@@H]1CCc2cc(CNC(=O)c3ccc(C#N)cc3)ccc2C1 [CBK010211C] | 127.511% |

Next entries.

| Compound | % of control remaining |
| --- | --- |
| COc1cc(/C=N/Nc2nnn[nH]2)cc2c1OCO2 [CBK262253] | 129.311% |
| O=C(N[C@@H](Cn1cc(Cl)c(=O)[nH]c1=O)C(=O)O)c1cccc(F)c1 [CBK289650] | 133.375% |
| CCC(C)NC(=O)c1ccccc1NS(=O)(=O)c1cc(C(=O)O)cs1 (stereo not drawn) [CBK295652] | 139.791% |
| COc1cc(CN2CCN(c3cc(C)ccc3C)CC2)cc([N+](=O)[O-])c1O [CBK261868] | 118.481% |
| CC(Oc1ccc2c(c1)OCO2)C(=O)N1CCc2sccc2C1c1ccccc1 (stereo not drawn) [CBK285549] | 125.192% |
| O=C(NCCCN1CCOCC1)Nc1ccccc1F [CBK269233] | 138.538% |
| Cc1cc(C)nc(SCC(=O)c2ccc(F)cc2)n1 [CBK092116] | 121.514% |
| O=C(c1ccco1)N1CCC(c2nnc(-c3ccccc3)c(-c3ccccc3)n2)CC1 [CBK286282] | 106.273% |
| Cc1nc(C2CCN(C(=O)c3ccnn3C)CC2)c2sccn12 [CBK285203] | 102.435% |
| CCNc1ncc(C(=O)N2CCC(Nc3cccnc3)CC2)s1 [CBK304047] | 131.918% |
| CN1CCCC1C(CCNC1CCCCC1)c1ccccc1 (stereo not drawn) [CBK023921C] | 102.969% |
| Nc1nonc1C(=O)NCCNS(=O)(=O)c1ccc(F)cc1 [CBK265980] | 122.291% |
| CCCn1c(O)cc(=O)nc1SCC(=O)N1CCCc2ccccc21 [CBK304977] | 130.649% |
| Cc1nnc(N2C(=O)c3oc4ccccc4c(=O)c3C2c2ccc(OCc3ccccc3)cc2)s1 (stereo not drawn) [CBK266287] | 156.154% |
| Cc1cc(C(=O)N2CCC(C(=O)NC(c3cnccn3)c3ccccc3C)CC2)no1 (stereo not drawn) [CBK059810] | 102.074% |
| CC(=O)NCCn1nc(-c2ccccc2F)cc1CN(C)C [CBK283473] | 119.407% |
| O=C(O)/C=C/c1cccc(-c2cncc(NCCc3ccncc3)n2)c1 [CBK065358] | 160.534% |
| CCOc1cccc(CNc2ccc(O)cc2)c1OCc1ccc(Cl)cc1Cl [CBK074528] | 76.4036% |
